# According to PubChem BioAssay AID743341 (Broad Institute, 2014):
# Listed are the inconclusive results; actives and inactives stand elsewhere.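 How the source made its calls: active means fitted curve of myotube length rescue reaches 40% at or below the top valid tested dose in every replicate test; inconclusive means replicate tests give mixed outcomes; inactive means every replicate test inactive, including effects in the opposite direction.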
# Assay: rescue of myotube length under simvastatin, confirmation, orthogonal assay for statin myotoxicity suppressor project, imaging, C2C12 myotubes, MHC immunostaining, dry powder (AID 743341)
# Details: MHC imaging tube length, 48 h; at 19.5 µM (top of the series)
row,Compound,rescue of myotube length
1,N#C[C@@H]1[C@@H](c2ccc(-c3cccc(F)c3)cc2)[C@H](CO)N1C(=O)NC1CCCC1,inconclusive: 46.1%
2,N#C[C@@H]1[C@H](c2ccc(-c3cccc(F)c3)cc2)[C@H](CO)N1C(=O)NC1CCCC1,inconclusive: 39.3%
3,N#C[C@H]1[C@H](c2ccc(-c3cccc(F)c3)cc2)[C@@H](CO)N1C(=O)NC1CCCC1,inconclusive: 9.62%
